The values below come from PMC7985502.

By UniProt entry, the sequences of proteins in these tests, tags left out. Residues count along the entry.
UniProt A6H8Y1: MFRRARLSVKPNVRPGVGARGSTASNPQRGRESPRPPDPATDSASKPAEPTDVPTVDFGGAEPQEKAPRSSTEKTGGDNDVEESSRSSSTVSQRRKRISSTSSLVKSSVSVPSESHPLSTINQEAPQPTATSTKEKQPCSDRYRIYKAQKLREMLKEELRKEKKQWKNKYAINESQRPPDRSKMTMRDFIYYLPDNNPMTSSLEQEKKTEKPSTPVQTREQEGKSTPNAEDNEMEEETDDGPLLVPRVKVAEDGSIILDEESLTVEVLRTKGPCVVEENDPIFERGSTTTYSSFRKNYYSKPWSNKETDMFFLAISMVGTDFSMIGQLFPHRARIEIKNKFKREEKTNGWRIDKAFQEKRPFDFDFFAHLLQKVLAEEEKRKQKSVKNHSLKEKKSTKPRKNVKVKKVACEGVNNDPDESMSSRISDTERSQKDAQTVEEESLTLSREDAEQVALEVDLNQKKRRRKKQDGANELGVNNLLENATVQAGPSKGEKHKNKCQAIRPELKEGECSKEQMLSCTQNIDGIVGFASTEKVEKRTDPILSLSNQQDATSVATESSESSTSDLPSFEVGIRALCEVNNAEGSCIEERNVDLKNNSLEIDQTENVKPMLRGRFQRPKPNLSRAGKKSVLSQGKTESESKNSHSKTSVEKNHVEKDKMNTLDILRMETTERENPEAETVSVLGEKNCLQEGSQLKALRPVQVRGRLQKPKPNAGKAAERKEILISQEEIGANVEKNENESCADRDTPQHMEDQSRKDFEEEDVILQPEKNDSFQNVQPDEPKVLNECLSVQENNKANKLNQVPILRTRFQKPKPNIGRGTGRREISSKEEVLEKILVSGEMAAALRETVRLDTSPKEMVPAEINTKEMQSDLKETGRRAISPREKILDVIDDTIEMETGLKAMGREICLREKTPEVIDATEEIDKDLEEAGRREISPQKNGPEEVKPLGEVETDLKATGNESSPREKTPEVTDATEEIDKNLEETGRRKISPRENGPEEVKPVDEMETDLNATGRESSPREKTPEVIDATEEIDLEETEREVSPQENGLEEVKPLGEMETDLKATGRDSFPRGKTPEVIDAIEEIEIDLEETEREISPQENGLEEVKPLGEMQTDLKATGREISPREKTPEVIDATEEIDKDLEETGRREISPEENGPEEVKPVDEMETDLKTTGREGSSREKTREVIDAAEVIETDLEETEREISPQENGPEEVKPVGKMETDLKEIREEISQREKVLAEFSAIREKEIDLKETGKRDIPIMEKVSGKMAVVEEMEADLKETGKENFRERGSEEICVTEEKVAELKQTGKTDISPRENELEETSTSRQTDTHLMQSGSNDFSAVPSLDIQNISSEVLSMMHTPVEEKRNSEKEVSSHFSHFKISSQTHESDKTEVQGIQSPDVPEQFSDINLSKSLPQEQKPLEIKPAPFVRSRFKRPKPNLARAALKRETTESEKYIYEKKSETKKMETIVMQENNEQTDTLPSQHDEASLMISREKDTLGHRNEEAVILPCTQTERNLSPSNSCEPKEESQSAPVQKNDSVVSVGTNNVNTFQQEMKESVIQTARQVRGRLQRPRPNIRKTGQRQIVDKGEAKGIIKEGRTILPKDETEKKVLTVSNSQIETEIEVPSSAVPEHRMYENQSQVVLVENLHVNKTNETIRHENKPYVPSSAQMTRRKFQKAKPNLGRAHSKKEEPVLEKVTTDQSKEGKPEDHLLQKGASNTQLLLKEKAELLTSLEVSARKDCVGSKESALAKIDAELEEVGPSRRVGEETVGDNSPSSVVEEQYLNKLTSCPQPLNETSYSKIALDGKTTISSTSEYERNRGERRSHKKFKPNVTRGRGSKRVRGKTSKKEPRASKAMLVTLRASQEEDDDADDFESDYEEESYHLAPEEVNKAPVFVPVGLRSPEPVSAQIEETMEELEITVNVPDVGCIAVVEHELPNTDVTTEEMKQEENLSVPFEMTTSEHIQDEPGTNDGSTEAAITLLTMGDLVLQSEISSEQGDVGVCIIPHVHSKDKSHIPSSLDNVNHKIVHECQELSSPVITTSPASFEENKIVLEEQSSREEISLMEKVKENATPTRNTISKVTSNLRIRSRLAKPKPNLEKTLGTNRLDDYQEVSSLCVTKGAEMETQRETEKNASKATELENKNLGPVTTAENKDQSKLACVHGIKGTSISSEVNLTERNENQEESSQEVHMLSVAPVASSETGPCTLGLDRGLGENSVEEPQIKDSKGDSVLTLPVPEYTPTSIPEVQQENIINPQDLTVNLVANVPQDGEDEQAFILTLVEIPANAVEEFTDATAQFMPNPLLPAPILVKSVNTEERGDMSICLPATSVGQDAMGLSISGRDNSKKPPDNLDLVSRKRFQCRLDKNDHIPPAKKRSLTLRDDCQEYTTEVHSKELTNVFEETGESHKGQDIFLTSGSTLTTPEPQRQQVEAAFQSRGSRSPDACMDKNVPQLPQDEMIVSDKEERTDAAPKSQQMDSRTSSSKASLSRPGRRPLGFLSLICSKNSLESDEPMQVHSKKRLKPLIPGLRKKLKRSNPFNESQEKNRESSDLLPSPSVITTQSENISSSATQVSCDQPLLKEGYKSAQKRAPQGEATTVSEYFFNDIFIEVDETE
UniProt Q15436: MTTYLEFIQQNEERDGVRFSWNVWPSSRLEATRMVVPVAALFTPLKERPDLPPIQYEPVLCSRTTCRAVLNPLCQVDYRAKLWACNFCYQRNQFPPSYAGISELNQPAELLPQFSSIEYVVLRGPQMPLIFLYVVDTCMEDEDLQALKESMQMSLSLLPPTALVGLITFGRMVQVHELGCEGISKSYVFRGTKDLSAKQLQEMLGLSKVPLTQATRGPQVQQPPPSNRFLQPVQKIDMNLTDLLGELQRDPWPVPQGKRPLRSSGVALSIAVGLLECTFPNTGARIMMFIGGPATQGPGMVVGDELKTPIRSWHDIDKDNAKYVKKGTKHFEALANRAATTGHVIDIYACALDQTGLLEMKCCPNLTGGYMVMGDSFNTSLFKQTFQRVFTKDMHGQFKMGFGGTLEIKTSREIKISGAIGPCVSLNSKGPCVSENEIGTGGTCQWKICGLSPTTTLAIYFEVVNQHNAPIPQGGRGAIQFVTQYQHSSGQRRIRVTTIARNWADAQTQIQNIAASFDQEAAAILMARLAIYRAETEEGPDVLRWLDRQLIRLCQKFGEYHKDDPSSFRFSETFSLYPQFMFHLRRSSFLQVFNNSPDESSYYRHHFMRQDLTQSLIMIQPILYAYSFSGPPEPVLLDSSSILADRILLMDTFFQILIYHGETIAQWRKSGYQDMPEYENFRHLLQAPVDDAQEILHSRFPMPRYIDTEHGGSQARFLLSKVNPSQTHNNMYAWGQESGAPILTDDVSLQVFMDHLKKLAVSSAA
UniProt O95347: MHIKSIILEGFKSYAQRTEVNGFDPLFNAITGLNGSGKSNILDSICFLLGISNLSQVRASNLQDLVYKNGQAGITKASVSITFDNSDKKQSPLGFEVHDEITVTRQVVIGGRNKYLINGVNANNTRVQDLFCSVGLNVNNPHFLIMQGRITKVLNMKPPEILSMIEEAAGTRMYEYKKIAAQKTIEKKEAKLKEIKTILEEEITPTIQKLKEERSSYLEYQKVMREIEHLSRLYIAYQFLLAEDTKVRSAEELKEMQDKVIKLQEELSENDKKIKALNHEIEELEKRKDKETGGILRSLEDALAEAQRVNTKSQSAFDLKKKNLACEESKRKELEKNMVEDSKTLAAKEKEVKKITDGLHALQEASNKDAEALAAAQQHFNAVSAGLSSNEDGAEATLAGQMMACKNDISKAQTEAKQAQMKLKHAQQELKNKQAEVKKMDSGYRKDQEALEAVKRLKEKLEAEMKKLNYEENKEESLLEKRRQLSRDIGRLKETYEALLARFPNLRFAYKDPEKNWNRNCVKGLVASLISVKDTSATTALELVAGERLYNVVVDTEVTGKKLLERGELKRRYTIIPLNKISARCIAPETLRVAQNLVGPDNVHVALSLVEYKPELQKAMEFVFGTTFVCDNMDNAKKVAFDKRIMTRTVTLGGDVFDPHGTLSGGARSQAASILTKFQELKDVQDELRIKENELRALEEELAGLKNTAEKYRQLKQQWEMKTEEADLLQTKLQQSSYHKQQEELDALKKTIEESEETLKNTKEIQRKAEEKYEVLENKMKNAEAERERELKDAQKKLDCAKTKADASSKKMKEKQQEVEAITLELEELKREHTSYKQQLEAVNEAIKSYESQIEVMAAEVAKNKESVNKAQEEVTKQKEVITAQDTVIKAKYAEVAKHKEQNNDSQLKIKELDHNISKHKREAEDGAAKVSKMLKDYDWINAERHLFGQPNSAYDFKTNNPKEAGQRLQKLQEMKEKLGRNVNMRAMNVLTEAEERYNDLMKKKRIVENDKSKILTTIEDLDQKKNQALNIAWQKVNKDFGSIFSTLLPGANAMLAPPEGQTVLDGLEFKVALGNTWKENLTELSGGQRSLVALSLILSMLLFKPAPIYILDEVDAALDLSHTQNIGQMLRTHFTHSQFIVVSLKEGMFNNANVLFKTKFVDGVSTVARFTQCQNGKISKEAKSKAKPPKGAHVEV
UniProt P11021, residues 19-654: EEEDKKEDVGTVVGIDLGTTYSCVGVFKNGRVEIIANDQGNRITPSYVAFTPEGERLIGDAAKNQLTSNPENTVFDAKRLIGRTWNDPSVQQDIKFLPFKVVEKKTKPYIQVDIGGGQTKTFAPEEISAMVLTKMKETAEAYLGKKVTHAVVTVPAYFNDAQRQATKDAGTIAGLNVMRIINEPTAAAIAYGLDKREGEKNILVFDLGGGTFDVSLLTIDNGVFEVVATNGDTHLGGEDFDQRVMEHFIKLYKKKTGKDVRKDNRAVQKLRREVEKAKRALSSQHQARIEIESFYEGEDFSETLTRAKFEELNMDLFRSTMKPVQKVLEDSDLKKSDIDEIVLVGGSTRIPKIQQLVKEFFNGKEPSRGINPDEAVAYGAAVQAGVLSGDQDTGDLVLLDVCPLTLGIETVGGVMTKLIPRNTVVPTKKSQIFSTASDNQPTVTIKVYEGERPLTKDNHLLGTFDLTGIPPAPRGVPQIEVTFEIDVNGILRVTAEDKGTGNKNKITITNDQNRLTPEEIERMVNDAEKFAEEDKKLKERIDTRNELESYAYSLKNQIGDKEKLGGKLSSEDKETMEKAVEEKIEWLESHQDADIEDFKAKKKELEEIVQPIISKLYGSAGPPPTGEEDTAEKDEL
UniProt Q9NTJ3: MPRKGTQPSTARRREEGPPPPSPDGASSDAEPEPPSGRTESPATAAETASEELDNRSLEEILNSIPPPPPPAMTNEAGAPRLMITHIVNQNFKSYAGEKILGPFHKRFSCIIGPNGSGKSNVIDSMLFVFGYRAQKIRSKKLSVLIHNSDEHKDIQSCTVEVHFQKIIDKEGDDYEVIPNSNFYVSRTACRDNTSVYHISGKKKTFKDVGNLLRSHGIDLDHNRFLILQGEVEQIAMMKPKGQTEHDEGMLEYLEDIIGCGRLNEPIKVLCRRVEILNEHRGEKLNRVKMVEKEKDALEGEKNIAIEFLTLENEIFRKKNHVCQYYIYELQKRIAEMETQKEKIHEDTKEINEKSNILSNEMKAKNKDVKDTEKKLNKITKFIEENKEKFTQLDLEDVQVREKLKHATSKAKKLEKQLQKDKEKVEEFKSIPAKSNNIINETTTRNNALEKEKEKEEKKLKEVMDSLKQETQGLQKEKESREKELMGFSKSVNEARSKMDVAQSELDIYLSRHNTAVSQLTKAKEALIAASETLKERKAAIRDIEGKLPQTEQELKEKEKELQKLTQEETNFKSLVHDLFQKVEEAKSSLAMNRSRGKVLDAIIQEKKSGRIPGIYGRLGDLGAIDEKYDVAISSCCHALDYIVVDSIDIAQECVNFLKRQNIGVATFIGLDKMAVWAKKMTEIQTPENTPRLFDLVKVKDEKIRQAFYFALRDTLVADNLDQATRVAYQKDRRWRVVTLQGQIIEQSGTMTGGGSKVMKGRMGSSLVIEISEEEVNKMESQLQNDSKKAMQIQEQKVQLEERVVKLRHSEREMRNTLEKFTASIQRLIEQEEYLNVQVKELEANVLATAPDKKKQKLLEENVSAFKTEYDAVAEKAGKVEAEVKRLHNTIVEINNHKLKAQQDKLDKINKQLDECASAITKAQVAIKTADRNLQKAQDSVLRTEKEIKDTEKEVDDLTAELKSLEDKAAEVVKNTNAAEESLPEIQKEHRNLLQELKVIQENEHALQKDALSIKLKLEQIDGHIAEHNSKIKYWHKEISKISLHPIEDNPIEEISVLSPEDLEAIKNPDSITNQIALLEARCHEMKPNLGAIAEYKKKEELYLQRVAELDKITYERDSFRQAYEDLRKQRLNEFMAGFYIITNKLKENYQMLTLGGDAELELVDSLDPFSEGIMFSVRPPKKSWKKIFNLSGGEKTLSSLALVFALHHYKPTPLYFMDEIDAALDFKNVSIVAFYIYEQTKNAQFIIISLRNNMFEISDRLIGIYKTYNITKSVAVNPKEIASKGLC

These are yes or no findings as the source states them, for the method shown. Binding seen in cells or lysates may run through a third protein. These calls come from enrichment with a bait or labelling near it, and not all partners need be listed. For some assays here: Where a sequence is shown, tags or fusion partners need not be part of it.

In experiment [1] the target is EGFP-tagged wild-type SEC23B (human) (UniProt Q15437). In words: affinity purification with mass spectrometry; anti-GFP (Abcam ab290) immunoprecipitation from lysates of stable Nthy-ori 3-1 cells, 10 mg total protein as 2 mg/ml lysates; cells untreated or treated with MG132 (10 uM, 24 h); normal rabbit IgG and Nthy-EGFP cells as negative controls; SDS-PAGE, then mass spectrometry.

Experiment [2] concerns the target EGFP-tagged p.Val594Gly mutant SEC23B (human) (UniProt Q15437). The experiment is described as above.

Take “B double prime 1 (BDP1, a subunit of RNA polymerase III transcription initiation factor IIIB) (from UniProt A6H8Y1 1-2624)”: the binding entry in experiment [1] is listed as “binds”.
In the case of SEC23A (from UniProt Q15436 1-765), the binding result in experiment [1] and in experiment [2] was “binds” each time.
On to “26S proteasome non-ATPase regulatory subunit 2 (PSMD2) (from UniProt Q13200 1-908)”, for which, in experiment [1], the binding result is recorded as “binds”.
On the same count and under the same terms, the value for SMC2 (from UniProt O95347 1-1197) was “binds”; that for “78 kDa glucose-regulated protein (GRP78, HSPA5/BiP) (from UniProt P11021 19-654)” was “binds”; that for SMC3 (from UniProt Q9UQE7 1-1217) was “binds”.
On the same count and under the same terms, the value for SMC4 (from UniProt Q9NTJ3 1-1288) was “binds”.
